# Results deposited as PubChem BioAssay AID1671195 (Yale University, 2021).
# Test: 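Knockdowns that increase or decrease uptake of fluorescent LDL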 (primary screen)
# Cell system: human Huh7 hepatoma cells
# Knock-down reagent: siRNA pool against human genes, 18 nM
# Duration: about 2 to 2.5 days of knockdown, then 8 h LDL uptake
# Conditions: DiI-labelled LDL at 30 µg/ml for 8 h, in lipoprotein-deficient serum medium
# Detection: 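Per-cell DiI-LDL intensity by automated imaging; well means scaled to the plate median and given as a robust z-score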
# Reading the numbers: robust z-score: higher = more LDL uptake after knockdown
# Hit rule: 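Active when two or more replicates show a robust z-score above 2 or below -2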
# The whole screen tested about 22,000 reagents; shown is a random part of them. In the full data, about 1,510 (6.9%) got an active call. 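Active includes knockdowns raising or lowering LDL uptake; positive z-scores mean more uptake, negative mean less.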
Gene,"robust z-score, replicate 1","robust z-score, replicate 2","robust z-score, replicate 3",call
DBP,-0.13,-1.11,-0.506,inactive
LOC83459 (retired record),1.28,0.225,0.639,inactive
FGF7P6,-1.2,-0.992,-0.843,inactive
CEACAM7,-0.351,-0.337,0.755,inactive
LOC441922 (retired record),-0.23,-0.487,-0.525,inactive
UPF2,0.509,0.791,0.303,inactive
BACC1,2.24,2.61,1.38,active
INO80D,-1.72,-2.04,-0.772,inactive
C19orf53,-1.29,0.663,0.728,inactive
LSM10,-0.638,-0.218,-0.33,inactive
PIAS2,0.668,0.556,0.193,inactive
FAM89A,-0.198,0.00313,0.069,inactive
LOC391509 (retired record),-0.574,-1.11,-1.13,inactive
PPIG,1.58,0.415,1.59,inactive
RAB41,0.22,-0.433,-0.858,inactive
TOMM40L,-1.24,-1.19,-1.32,inactive
LOC442208 (retired record),-2.96,-2.99,-2.81,active
AREG,-1.54,-1.07,-1.37,inactive
LOC441672 (retired record),1.55,0.72,0.7,inactive
NKAIN1,-0.919,-0.676,-0.771,inactive
ABHD1,0.0167,-0.45,-0.489,inactive
SPTLC2,-1.14,-1.32,-0.933,inactive
ACY1,-0.216,-0.398,0.256,inactive
INSYN1,-1.2,-1.16,-0.969,inactive
SLC15A2,0.95,0.543,0.529,inactive
RAD9A,0.526,-1.11,0.602,inactive
RGS3,3.88,2.36,2.52,active
BMAL2,-0.399,-0.113,0.094,inactive

2 of these entries, set out differently:
Gene	robust z-score, replicate 1	robust z-score, replicate 2	robust z-score, replicate 3	call
AREG	-1.54	-1.07	-1.37	inactive
LOC441672 (retired record)	1.55	0.72	0.7	inactive
